# The list shows a part of the results. Single values are uncertain, as repeats are few or missing.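 Cells were imaged in 1,536-well plates, and nuclei stained with an antibody against cleaved PARP were counted against all DNA-stained nuclei to give the apoptosis fraction. Screening doses were chosen to leave most cells alive, and resting and induced cleaved-PARP levels differ strongly between cell lines.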
# How the values were obtained:
# Assay in all cases: cleaved PARP positive nuclei fraction relative to DMSO control; melanoma cells; higher = more apoptosis
# Conditions in all cases: library dose: low library concentration; 72 h
# COLO792 = system: COLO792
# COLO800 = system: COLO800
# COLO829 = system: COLO829
# G361 = system: G361
# IPC-298 = system: IPC-298
# IST-MEL1 = system: IST-MEL1
# LB2518-MEL = system: LB2518-MEL
# LOXIMVI = system: LOXIMVI
# MEL-HO = system: MEL-HO
# MZ2-MEL = system: MZ2-MEL
# MeWo = system: MeWo
# RPMI7951 = system: RPMI7951
# RVH-421 = system: RVH-421
# SkMel28 = system: SkMel28
# SkMel2 = system: SkMel2
# SkMel30 = system: SkMel30
# SkMel5 = system: SkMel5
# UACC257 = system: UACC257
# UACC62 = system: UACC62
Structure (SMILES),cleaved PARP positive nuclei fraction (COLO792) [%],cleaved PARP positive nuclei fraction (COLO800) [%],cleaved PARP positive nuclei fraction (COLO829) [%],cleaved PARP positive nuclei fraction (G361) [%],cleaved PARP positive nuclei fraction (IPC-298) [%],cleaved PARP positive nuclei fraction (IST-MEL1) [%],cleaved PARP positive nuclei fraction (LB2518-MEL) [%],cleaved PARP positive nuclei fraction (LOXIMVI) [%],cleaved PARP positive nuclei fraction (MEL-HO) [%],cleaved PARP positive nuclei fraction (MZ2-MEL) [%],cleaved PARP positive nuclei fraction (MeWo) [%],cleaved PARP positive nuclei fraction (RPMI7951) [%],cleaved PARP positive nuclei fraction (RVH-421) [%],cleaved PARP positive nuclei fraction (SkMel28) [%],cleaved PARP positive nuclei fraction (SkMel2) [%],cleaved PARP positive nuclei fraction (SkMel30) [%],cleaved PARP positive nuclei fraction (SkMel5) [%],cleaved PARP positive nuclei fraction (UACC257) [%],cleaved PARP positive nuclei fraction (UACC62) [%]
"O=C(Nc1cc(C(F)(F)F)cc(C(F)(F)F)c1)c1cc(Cl)ccc1O + CN(C)S(=O)(=O)c1ccc2c(c1)/C(=C/c1cc3c([nH]1)CCCC3)C(=O)N2 [SU6656] (first compound 0.016 µM, partner dose 0.4 µM)",324,100,106,104,367,638,54.4,1310,504,111,82.3,46.2,86.8,219,83.8,55.9,207,264,230
"N#CC[C@H](C1CCCC1)n1cc(-c2ncnc3[nH]ccc23)cn1 [ruxolitinib] + CC(C)(C)c1cnc(CSc2cnc(NC(=O)C3CCNCC3)s2)o1 [SNS-032] (first compound 1 µM, partner dose 0.01 µM)",80,22.3,87.2,107,82,34.5,148,55.6,101,132,76.9,67.1,107,111,34.5,92.5,48.1,89.4,66.2
"O=C(/C=C/c1cccnc1)NCCCCC1CCN(C(=O)c2ccccc2)CC1 + NC(=O)Nc1cc(-c2cccc(F)c2)sc1C(=O)N[C@H]1CCCNC1 [AZD7762] (first compound 0.01 µM, partner dose 0.02 µM)",366,226,270,3650,207,108,401,52.6,223,524,82,156,107,62.5,880,64.2,137,33.4,23.4
"CC[C@]1(O)C[C@H]2CN(CCc3c([nH]c4ccccc34)[C@@](C(=O)OC)(c3cc4c(cc3OC)N(C=O)[C@H]3[C@@](O)(C(=O)OC)[C@H](OC(C)=O)[C@]5(CC)C=CCN6CC[C@]43[C@@H]65)C2)C1 [vincristine] + Cn1cncc1[C@@](N)(c1ccc(Cl)cc1)c1ccc2c(c1)c(-c1cccc(Cl)c1)cc(=O)n2C [tipifarnib] (first compound 0.0001 µM, partner dose 0.01 µM)",66,104,198,34.4,50.4,102,58,540,155,224,126,185,57,430,163,816,241,461,130
"N#CC[C@H](C1CCCC1)n1cc(-c2ncnc3[nH]ccc23)cn1 [ruxolitinib] + O=C(CCCCCCC(=O)Nc1ccccc1)NO [vorinostat] (first compound 1 µM, partner dose 0.08 µM)",156,33.8,53.2,63.1,128,135,18.1,49.4,144,129,41.5,73,117,61.9,85,48.5,67.8,85.7,123
"COc1cc([C@@H]2c3cc4c(cc3[C@@H](O[C@@H]3O[C@@H]5CO[C@@H](C)O[C@H]5[C@H](O)[C@H]3O)[C@H]3COC(=O)[C@H]23)OCO4)cc(OC)c1O [etoposide] + O=C(O)c1ccc(-c2c[nH]c3ncc(-c4ccccc4)cc23)cc1C1CCCC1 [GSK650394] (first compound 0.02 µM, partner dose 0.16 µM)",115,199,66.9,133,67.7,399,106,23.2,77,132,110,48,248,66.9,79.8,67.8,65.7,84.2,445
"Cc1cn(-c2cc(NC(=O)c3ccc(C)c(Nc4nccc(-c5cccnc5)n4)c3)cc(C(F)(F)F)c2)cn1 [nilotinib] + O=C(CCCCCCC(=O)Nc1ccccc1)NO [vorinostat] (first compound 0.2 µM, partner dose 0.08 µM)",104,66.1,83.4,127,87.6,99.6,145,308,71.4,28.1,102,106,91.1,224,103,58.7,146,65.2,231
"Cc1cn(-c2cc(NC(=O)c3ccc(C)c(Nc4nccc(-c5cccnc5)n4)c3)cc(C(F)(F)F)c2)cn1 [nilotinib] + CN(NC(=O)CC(=O)NN(C)C(=S)c1ccccc1)C(=S)c1ccccc1 [STA4783] (first compound 0.2 µM, partner dose 0.006 µM)",200,175,95.1,126,77.4,117,92.6,90.1,71.2,141,41.1,47.1,85.1,198,58.6,67.6,31.2,134,244
"Cc1cn(-c2cc(NC(=O)c3ccc(C)c(Nc4nccc(-c5cccnc5)n4)c3)cc(C(F)(F)F)c2)cn1 [nilotinib] + C[C@@H]1CCN(C(=O)CC#N)C[C@@H]1N(C)c1ncnc2[nH]ccc12 [CP690550] (first compound 0.2 µM, partner dose 1 µM)",468,30.9,90.3,90.6,86.6,102,71.2,923,195,77.9,46,59,107,226,154,116,348,470,194
"Cc1cc(Nc2cc(N3CCN(C)CC3)nc(Sc3ccc(NC(=O)C4CC4)cc3)n2)n[nH]1 [Tozasertib] + C=CCn1c(=O)c2cnc(Nc3ccc(N4CCN(C)CC4)cc3)nc2n1-c1cccc(C(C)(C)O)n1 [MK1775] (first compound 0.006 µM, partner dose 0.02 µM)",46.3,101,67.8,75.5,103,48.2,132,199,71.4,118,113,162,150,141,82.3,56.6,83.2,54.9,73.1
"O=C(Nc1cc(C(F)(F)F)cc(C(F)(F)F)c1)c1cc(Cl)ccc1O + NCC(=O)Nc1ccc(-n2nc(C(F)(F)F)cc2-c2ccc3c(ccc4ccccc43)c2)cc1 [OSU03012] (first compound 0.016 µM, partner dose 1 µM)",154,102,113,224,117,114,104,106,61.9,131,88.3,97.5,105,316,321,130,149,65.3,86.8
"O=C(/C=C/c1cccnc1)NCCCCC1CCN(C(=O)c2ccccc2)CC1 + CN(NC(=O)CC(=O)NN(C)C(=S)c1ccccc1)C(=S)c1ccccc1 [STA4783] (first compound 0.01 µM, partner dose 0.006 µM)",495,224,367,3880,112,428,195,321,343,407,50.7,103,239,44.1,296,24.2,138,60.2,163
"Cc1ccc(Nc2nccc(N(C)c3ccc4c(C)n(C)nc4c3)n2)cc1S(N)(=O)=O [Pazopanib] + O=C(CCCCCCC(=O)Nc1ccccc1)NO [vorinostat] (first compound 0.4 µM, partner dose 0.08 µM)",70.9,153,110,75.4,54.4,98.2,74.8,118,150,27.6,34.7,97.5,20.1,144,51.6,82.9,74.1,103,77.2
"Cc1cc(Nc2cc(N3CCN(C)CC3)nc(Sc3ccc(NC(=O)C4CC4)cc3)n2)n[nH]1 [Tozasertib] + O=C(CCCCCCC(=O)Nc1ccccc1)NO [vorinostat] (first compound 0.006 µM, partner dose 0.08 µM)",112,166,77.4,54.3,43.6,81.4,196,42.1,29.4,52,129,57.3,139,38,85.4,65.6,194,38.7,125
"Cc1cn(-c2cc(NC(=O)c3ccc(C)c(Nc4nccc(-c5cccnc5)n4)c3)cc(C(F)(F)F)c2)cn1 [nilotinib] + CC(C)(C)c1cnc(CSc2cnc(NC(=O)C3CCNCC3)s2)o1 [SNS-032] (first compound 0.2 µM, partner dose 0.01 µM)",136,86.8,76.5,75.7,88.1,237,181,224,99.8,163,67.9,54.3,85.9,173,114,71.4,180,74,252
"O=C(/C=C/c1cccnc1)NCCCCC1CCN(C(=O)c2ccccc2)CC1 + COc1cc(Nc2ncc(F)c(Nc3ccc4c(n3)NC(=O)C(C)(C)O4)n2)cc(OC)c1OC [Tamatinib] (first compound 0.01 µM, partner dose 0.4 µM)",362,201,142,2190,134,289,94.4,63.9,178,419,129,205,150,141,261,94.7,274,83.5,172
"O=c1[nH]nc(Sc2ncc([N+](=O)[O-])s2)n1-c1ccc2c(c1)OCCO2 + NCC(=O)Nc1ccc(-n2nc(C(F)(F)F)cc2-c2ccc3c(ccc4ccccc43)c2)cc1 [OSU03012] (first compound 0.2 µM, partner dose 1 µM)",75.2,180,108,101,71.9,101,170,159,72.5,97.1,63.5,88.5,86.8,171,391,114,209,48.1,68.2

# Quoted at random: 2 records from the list.
Structure (SMILES),cleaved PARP positive nuclei fraction (COLO792) [%],cleaved PARP positive nuclei fraction (COLO800) [%],cleaved PARP positive nuclei fraction (COLO829) [%],cleaved PARP positive nuclei fraction (G361) [%],cleaved PARP positive nuclei fraction (IPC-298) [%],cleaved PARP positive nuclei fraction (IST-MEL1) [%],cleaved PARP positive nuclei fraction (LB2518-MEL) [%],cleaved PARP positive nuclei fraction (LOXIMVI) [%],cleaved PARP positive nuclei fraction (MEL-HO) [%],cleaved PARP positive nuclei fraction (MZ2-MEL) [%],cleaved PARP positive nuclei fraction (MeWo) [%],cleaved PARP positive nuclei fraction (RPMI7951) [%],cleaved PARP positive nuclei fraction (RVH-421) [%],cleaved PARP positive nuclei fraction (SkMel28) [%],cleaved PARP positive nuclei fraction (SkMel2) [%],cleaved PARP positive nuclei fraction (SkMel30) [%],cleaved PARP positive nuclei fraction (SkMel5) [%],cleaved PARP positive nuclei fraction (UACC257) [%],cleaved PARP positive nuclei fraction (UACC62) [%]
"Cc1ccc(Nc2nccc(N(C)c3ccc4c(C)n(C)nc4c3)n2)cc1S(N)(=O)=O [Pazopanib] + O=C(CCCCCCC(=O)Nc1ccccc1)NO [vorinostat] (first compound 0.4 µM, partner dose 0.08 µM)",70.9,153,110,75.4,54.4,98.2,74.8,118,150,27.6,34.7,97.5,20.1,144,51.6,82.9,74.1,103,77.2
"Cc1cn(-c2cc(NC(=O)c3ccc(C)c(Nc4nccc(-c5cccnc5)n4)c3)cc(C(F)(F)F)c2)cn1 [nilotinib] + C[C@@H]1CCN(C(=O)CC#N)C[C@@H]1N(C)c1ncnc2[nH]ccc12 [CP690550] (first compound 0.2 µM, partner dose 1 µM)",468,30.9,90.3,90.6,86.6,102,71.2,923,195,77.9,46,59,107,226,154,116,348,470,194
